Reference: the supplement of paper PMC10849652
The other results are listed elsewhere or left out.

By UniProt entry, the sequences of proteins in these tests, tags left out. Where a name states a change or a piece, a line headed by the entry shows the natural chain unless it says otherwise.
UniProt P32322: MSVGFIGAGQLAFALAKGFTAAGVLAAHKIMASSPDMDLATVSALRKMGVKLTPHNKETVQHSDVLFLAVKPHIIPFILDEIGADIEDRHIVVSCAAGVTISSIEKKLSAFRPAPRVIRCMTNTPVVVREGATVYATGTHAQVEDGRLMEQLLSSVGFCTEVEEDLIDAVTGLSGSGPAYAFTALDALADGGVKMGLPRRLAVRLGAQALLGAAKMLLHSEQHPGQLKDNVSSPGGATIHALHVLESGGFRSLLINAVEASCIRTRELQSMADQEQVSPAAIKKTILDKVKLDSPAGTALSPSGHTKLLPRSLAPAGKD
UniProt O14966: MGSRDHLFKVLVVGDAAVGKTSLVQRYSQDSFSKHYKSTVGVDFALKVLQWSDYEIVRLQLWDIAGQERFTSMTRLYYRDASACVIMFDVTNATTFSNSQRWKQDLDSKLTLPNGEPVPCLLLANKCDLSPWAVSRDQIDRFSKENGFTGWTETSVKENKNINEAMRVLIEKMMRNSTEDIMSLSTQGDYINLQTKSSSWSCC
UniProt P61006: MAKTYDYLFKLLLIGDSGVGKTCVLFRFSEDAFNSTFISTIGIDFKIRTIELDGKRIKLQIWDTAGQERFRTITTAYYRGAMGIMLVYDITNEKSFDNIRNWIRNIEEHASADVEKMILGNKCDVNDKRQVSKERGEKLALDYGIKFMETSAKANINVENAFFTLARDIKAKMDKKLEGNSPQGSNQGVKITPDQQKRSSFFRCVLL
UniProt O75154: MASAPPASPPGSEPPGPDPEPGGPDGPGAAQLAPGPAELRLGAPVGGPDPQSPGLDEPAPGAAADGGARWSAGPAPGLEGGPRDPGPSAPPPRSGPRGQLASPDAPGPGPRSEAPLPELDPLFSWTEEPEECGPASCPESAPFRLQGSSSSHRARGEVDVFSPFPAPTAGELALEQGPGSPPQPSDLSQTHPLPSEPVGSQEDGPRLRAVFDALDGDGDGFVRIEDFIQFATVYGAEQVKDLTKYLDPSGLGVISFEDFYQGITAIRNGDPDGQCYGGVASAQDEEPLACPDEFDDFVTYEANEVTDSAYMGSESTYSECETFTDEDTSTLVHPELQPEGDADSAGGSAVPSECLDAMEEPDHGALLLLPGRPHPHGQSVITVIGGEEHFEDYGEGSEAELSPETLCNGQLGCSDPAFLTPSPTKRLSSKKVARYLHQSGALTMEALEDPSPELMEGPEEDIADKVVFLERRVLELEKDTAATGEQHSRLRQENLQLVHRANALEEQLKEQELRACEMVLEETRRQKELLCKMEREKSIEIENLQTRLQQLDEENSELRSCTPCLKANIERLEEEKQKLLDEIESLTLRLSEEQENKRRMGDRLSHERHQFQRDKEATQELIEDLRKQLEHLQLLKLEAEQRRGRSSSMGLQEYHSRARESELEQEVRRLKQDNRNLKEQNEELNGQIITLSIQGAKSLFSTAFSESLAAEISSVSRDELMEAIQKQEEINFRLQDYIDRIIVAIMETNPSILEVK
UniProt Q6K0P9: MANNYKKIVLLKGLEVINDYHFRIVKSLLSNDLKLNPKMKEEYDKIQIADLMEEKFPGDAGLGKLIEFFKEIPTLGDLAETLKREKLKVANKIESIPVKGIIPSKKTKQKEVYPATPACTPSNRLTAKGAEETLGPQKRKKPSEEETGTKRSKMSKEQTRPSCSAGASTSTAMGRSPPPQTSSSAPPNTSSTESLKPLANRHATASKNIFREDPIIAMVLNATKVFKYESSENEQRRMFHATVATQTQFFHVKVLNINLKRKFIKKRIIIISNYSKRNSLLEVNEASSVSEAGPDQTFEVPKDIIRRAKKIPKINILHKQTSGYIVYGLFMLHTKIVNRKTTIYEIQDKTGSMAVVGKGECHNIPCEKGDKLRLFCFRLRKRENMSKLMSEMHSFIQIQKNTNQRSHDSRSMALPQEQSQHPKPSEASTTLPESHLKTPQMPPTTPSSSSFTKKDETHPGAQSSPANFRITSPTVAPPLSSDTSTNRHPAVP
UniProt Q96S21: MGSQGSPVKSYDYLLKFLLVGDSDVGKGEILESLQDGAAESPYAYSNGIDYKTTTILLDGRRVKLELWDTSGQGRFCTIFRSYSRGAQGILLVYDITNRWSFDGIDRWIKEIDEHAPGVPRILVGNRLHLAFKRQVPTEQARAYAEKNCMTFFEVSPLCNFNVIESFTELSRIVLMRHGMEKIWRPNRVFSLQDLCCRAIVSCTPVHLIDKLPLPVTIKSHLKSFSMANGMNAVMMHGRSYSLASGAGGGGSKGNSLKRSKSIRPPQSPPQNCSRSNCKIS
UniProt Q9BRQ0: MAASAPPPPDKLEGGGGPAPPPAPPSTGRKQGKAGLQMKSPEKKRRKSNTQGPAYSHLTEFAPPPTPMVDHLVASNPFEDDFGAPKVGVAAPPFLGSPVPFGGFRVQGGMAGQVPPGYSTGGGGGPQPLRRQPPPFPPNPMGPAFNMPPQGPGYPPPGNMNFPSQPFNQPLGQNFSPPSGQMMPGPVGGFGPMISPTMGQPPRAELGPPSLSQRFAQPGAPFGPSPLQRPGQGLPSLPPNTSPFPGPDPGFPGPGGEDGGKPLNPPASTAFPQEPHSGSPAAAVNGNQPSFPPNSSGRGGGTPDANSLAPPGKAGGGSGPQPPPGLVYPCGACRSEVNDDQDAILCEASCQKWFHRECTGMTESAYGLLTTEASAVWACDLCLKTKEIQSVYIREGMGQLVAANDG
UniProt Q96DA2: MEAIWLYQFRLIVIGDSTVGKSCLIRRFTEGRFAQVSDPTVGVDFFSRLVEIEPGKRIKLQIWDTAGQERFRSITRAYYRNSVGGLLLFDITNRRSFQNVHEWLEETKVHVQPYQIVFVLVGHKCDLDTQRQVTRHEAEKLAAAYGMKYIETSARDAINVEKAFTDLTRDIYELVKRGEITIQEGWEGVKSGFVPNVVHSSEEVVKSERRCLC
UniProt P62820, whole entry, looked up: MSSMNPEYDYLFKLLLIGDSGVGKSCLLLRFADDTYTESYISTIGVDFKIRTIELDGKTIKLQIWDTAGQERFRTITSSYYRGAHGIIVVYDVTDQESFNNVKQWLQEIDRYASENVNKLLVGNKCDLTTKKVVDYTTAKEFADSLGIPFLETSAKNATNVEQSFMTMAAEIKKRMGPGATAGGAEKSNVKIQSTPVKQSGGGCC
UniProt P11234: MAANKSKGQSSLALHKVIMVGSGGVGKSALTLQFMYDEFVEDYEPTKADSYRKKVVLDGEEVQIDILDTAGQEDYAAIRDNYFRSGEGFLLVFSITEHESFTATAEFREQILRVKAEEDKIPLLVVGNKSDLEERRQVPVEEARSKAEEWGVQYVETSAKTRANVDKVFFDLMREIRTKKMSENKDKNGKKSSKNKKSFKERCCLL
UniProt Q86YS6: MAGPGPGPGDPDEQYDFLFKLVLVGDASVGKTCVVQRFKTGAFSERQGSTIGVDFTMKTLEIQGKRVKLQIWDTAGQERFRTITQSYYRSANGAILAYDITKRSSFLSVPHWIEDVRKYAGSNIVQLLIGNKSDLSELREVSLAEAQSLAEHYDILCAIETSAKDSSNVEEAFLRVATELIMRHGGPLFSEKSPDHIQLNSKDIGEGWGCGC
UniProt P46060: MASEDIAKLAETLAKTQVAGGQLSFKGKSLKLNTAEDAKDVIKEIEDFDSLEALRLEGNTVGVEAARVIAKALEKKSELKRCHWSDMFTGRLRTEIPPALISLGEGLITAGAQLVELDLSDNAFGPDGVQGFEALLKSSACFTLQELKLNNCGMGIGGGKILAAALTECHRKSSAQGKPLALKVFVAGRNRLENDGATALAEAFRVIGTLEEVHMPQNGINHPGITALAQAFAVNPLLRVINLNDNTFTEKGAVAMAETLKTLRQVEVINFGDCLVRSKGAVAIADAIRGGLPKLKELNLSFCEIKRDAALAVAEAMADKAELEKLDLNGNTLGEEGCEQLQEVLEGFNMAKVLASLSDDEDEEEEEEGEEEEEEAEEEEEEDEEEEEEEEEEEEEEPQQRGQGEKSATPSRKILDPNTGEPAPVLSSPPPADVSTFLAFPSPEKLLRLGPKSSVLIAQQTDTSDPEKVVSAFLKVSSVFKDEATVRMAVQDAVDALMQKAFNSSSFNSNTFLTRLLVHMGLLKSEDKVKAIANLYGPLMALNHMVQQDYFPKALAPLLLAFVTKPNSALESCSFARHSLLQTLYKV
UniProt Q96D70: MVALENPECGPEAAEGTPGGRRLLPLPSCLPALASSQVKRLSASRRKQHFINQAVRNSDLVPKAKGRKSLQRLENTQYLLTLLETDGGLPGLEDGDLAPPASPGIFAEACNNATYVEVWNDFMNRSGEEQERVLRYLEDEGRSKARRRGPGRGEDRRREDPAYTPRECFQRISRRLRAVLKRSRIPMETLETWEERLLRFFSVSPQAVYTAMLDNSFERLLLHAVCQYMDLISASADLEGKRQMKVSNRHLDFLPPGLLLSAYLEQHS
UniProt Q9Y6I8: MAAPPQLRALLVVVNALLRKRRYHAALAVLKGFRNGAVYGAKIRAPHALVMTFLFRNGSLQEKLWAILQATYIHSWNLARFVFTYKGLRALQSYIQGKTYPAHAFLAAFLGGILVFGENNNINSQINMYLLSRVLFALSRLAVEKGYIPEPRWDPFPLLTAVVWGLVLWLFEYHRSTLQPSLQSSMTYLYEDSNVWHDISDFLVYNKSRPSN
UniProt Q86X27: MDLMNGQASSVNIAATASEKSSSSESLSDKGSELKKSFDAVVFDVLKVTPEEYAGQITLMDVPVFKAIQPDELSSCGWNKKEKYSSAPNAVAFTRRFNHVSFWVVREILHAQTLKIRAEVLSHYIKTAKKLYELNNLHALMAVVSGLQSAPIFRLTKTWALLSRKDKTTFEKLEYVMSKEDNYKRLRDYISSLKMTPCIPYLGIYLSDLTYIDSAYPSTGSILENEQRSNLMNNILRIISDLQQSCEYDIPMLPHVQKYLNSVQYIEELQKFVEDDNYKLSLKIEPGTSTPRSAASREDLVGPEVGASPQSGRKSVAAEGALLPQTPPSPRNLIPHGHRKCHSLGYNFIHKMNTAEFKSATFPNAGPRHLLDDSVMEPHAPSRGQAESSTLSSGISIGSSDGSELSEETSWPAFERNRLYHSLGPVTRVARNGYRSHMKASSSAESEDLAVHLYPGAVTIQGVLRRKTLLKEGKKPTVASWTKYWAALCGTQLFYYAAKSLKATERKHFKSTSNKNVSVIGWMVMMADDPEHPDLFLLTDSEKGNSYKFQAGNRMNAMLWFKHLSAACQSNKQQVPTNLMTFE
UniProt Q9Y620: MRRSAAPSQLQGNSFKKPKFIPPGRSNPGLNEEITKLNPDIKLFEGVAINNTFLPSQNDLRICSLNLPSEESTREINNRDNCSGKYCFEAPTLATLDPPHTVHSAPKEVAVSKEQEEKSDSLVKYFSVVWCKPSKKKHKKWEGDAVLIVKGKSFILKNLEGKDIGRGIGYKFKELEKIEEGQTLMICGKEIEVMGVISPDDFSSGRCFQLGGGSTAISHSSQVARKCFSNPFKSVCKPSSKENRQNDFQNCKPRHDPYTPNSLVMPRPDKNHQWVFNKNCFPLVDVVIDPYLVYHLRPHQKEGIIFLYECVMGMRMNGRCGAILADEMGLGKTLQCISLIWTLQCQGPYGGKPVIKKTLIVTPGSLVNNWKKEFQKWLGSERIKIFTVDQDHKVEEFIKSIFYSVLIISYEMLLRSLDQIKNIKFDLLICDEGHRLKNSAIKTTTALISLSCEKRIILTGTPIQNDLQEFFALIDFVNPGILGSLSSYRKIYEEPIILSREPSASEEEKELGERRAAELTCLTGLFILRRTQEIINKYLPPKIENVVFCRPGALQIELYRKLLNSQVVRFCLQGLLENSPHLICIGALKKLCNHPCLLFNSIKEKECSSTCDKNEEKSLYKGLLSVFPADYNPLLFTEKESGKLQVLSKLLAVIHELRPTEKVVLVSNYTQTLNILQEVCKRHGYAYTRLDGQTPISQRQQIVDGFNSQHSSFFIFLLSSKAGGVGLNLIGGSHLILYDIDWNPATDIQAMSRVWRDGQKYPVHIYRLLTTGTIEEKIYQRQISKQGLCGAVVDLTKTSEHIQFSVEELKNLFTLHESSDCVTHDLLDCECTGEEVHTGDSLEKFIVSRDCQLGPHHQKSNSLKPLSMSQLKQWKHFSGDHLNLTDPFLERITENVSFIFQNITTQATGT
UniProt Q96I23: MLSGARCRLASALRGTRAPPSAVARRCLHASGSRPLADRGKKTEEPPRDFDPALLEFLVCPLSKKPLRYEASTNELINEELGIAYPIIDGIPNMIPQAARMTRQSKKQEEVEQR
UniProt Q9BRP8: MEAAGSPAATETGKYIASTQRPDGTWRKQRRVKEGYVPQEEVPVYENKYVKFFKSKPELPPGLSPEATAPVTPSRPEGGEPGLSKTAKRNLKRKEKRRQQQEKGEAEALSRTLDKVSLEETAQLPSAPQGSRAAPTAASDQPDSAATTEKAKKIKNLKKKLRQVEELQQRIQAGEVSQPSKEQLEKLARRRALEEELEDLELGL
UniProt P20337: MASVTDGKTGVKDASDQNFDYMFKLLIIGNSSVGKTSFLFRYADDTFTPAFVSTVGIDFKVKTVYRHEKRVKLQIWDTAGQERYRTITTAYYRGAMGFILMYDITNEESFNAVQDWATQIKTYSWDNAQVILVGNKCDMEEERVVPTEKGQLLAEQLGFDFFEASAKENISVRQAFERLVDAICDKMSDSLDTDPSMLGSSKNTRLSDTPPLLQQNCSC

Legend:
Experiment in all cases: log2 fold change, soluble protein after heating vs DMSO (PISA); higher = thermal stabilisation; K562 lysate, 10 uM; active = over 0.2 and 3.5 SD of the protein, either way, in both replicates (recomputed)
[1] = compound: c1ccc([C@@H]2C[C@H]2NC2CCNCC2)cc1
Method in brief: (§1)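 Following dounce homogenisation of K562 pellets in PBS pH 7.4 with 1 mM MgCl2, crude extract at 1 mg/mL protein was incubated for 30 min with 10 μM compound. Aliquots were then heated for 3 min over 48°C-58°C and pooled, NP-40 was added to 0.5% at 4°C, and soluble protein was recovered as the supernatant at 21,000xg for 90 min. Channel-sum-equalised TMTpro 16plex LC-MS/MS quantified this protein. Each value, from duplicates, is a log-two fold change in thermal stability relative to solvent controls.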

[2] = compound: C1=CC=C(C=C1)[C@H](COC2=CC3=C(C=C2)NC(=O)N3)NC(=O)C4=CC=CN(C4=O)CC5=CC(=C(C=C5)F)F
Method in brief: as §1

[3] = compound: CC1=C(SC2=C1C(=N[C@H](C3=NN=C(N32)C)CC(=O)N)C4=CC=C(C=C4)Cl)C
Method in brief: as §1

[4] = compound: Cc1sc2c(c1C)C(c1ccc(Cl)cc1)=N[C@@H](CC(=O)OC(C)(C)C)c1nnc(C)n1-2
Method in brief: as §1

[5] = compound: CC1=C2C(=CC=C1)N=C(N(C2=O)C3=CC=CC=C3C)CN4C=NC5=C(N=CN=C54)N
Method in brief: as §1

Row | Target | log2 fold change [1] | log2 fold change [2] | log2 fold change [3] | log2 fold change [4] | log2 fold change [5]
1 | RAD23A isoform 3 (UniProt P54725) | inactive: -0.233 | – | – | – | –
2 | PYCR1 isoform 3 (UniProt P32322) | – | inactive: 0.013 | inactive: 0.069 | inactive: 0 | –
3 | RAB29 (UniProt O14966) | inactive: 0.143 | – | – | inactive: 0.198 | –
4 | RAB11FIP5, A0A1B0GTL5 | inactive: 0.158 | – | – | – | –
5 | RAB8A (UniProt P61006) | inactive: 0.016 | inactive: -0.024 | inactive: -0.005 | inactive: 0.026 | inactive: 0.003
6 | QSER1, A0A3B3IRW6 | – | – | – | inactive: -0.027 | inactive: 0.047
7 | RAP1GDS1 isoform 4 (UniProt P52306) | inactive: -0.019 | inactive: 0.109 | inactive: -0.086 | – | –
8 | NA (UniProt Q4G0T1) | inactive: -0.025 | – | – | inactive: -0.027 | –
9 | RACK1 (UniProt D6RHH4) | inactive: -0.309 | inactive: 0.014 | inactive: 0.027 | – | inactive: 0.05
10 | RAB11FIP3 isoform 3 (UniProt O75154) | – | – | – | inactive: 0.125 | –
11 | PYHIN1 (UniProt Q6K0P9) | – | – | – | inactive: -0.059 | –
12 | RAB40C (UniProt Q96S21) | inactive: -0.074 | inactive: 0.087 | inactive: -0.006 | – | inactive: 0.048
13 | RAC3 (UniProt P60763) | inactive: 0.029 | – | – | – | inactive: -0.051
14 | PYGO2 (UniProt Q9BRQ0) | inactive: 0.011 | inactive: 0.064 | inactive: 0.031 | inactive: 0.024 | –
15 | RAB39B (UniProt Q96DA2) | inactive: -0.996 | inactive: 0.081 | inactive: -0.051 | – | –
16 | RAD54L (UniProt Q92698) | active: -1.06 | inactive: -0.013 | inactive: -0.031 | inactive: -0.299 | –
17 | RAB1A (UniProt P62820) | inactive: 0.005 | inactive: -0.04 | inactive: -0.019 | inactive: 0.032 | inactive: 0.035

Only log2 fold change [3], log2 fold change [1] and log2 fold change [5], for some of the entries so far:
Row | Target | log2 fold change [3] | log2 fold change [1] | log2 fold change [5]
7 | RAP1GDS1 isoform 4 (UniProt P52306) | inactive: -0.086 | inactive: -0.019 | –
8 | NA (UniProt Q4G0T1) | – | inactive: -0.025 | –

Continued:

Row | Target | log2 fold change [1] | log2 fold change [2] | log2 fold change [3] | log2 fold change [4] | log2 fold change [5]
18 | RAB3IL1 (UniProt Q8TBN0) | inactive: 0.039 | inactive: 0.047 | inactive: 0.008 | inactive: 0.007 | inactive: 0.02
19 | PYCARD isoform 2 (UniProt Q9ULZ3) | inactive: 0.117 | inactive: -0.011 | inactive: 0.015 | – | –
20 | RALB isoform 2 (UniProt P11234) | inactive: -0.063 | inactive: -0.029 | inactive: 0.002 | inactive: 0.013 | inactive: 0.109
21 | RAB43 (UniProt Q86YS6) | inactive: -0.016 | inactive: 0.01 | inactive: -0.031 | inactive: 0.178 | –
22 | RANGAP1 (UniProt P46060) | inactive: 0.006 | inactive: -0.013 | inactive: 0.004 | inactive: 0.019 | inactive: -0.009
23 | R3HDM4 (UniProt Q96D70) | inactive: 0.154 | – | – | inactive: -0.096 | inactive: -0.02
24 | PXMP4 (UniProt Q9Y6I8) | inactive: 0.041 | inactive: -0.096 | inactive: -0.022 | inactive: -0.191 | inactive: -0.026
25 | RALGPS2 (UniProt Q86X27) | inactive: -0.108 | inactive: -0.074 | inactive: -0.014 | – | inactive: 0.121
26 | RAD54B (UniProt Q9Y620) | – | – | – | inactive: -0.017 | inactive: -0.023
27 | PXK (UniProt Q7Z7A4) | inactive: -0.054 | inactive: -0.059 | inactive: -0.03 | inactive: 0.008 | inactive: 0.018
28 | RAD1 (UniProt O60671) | inactive: -0.027 | inactive: 0.026 | inactive: 0.004 | inactive: 0.005 | inactive: -0.006
29 | PYURF (UniProt Q96I23) | inactive: -0.091 | inactive: 0.03 | inactive: 0.048 | inactive: 0.007 | inactive: 0.126
30 | PYM1 (UniProt Q9BRP8) | inactive: 0.014 | inactive: -0.031 | inactive: 0.053 | inactive: 0.018 | inactive: 0.046
31 | RAB3B (UniProt P20337) | inactive: 0.083 | – | – | – | –
32 | RALGAPB isoform 3 (UniProt Q86X10) | inactive: 0.153 | inactive: 0.107 | inactive: 0.05 | inactive: 0.189 | –
33 | RAB27B (UniProt O00194) | inactive: -0.055 | – | – | inactive: -0.078 | inactive: 0.051
